Measured values: paper PMC10657444, “Design and evaluation of tadpole-like conformational antimicrobial peptides” (Communications Biology, 2023)
Where “and” joins values, the source holds several entries; their conditions need not be identical. Equal values may be shown once. This continues a long series; more values of the same kind are listed elsewhere. Non-standard residues stand in square brackets, D forms with d. Residues, ends and D or L forms follow the SMILES beside them.

Tests used:
MRSA USA 300 = experiment: Membrane permeability, SYTOX Green; format: cell-based, Staphylococcus aureus
Experimental: Fluorescent probe SYTOX^TM Green (Invitrogen/ Life Technologies, S7020) was used to analyze the effect of HT2 and RI-HT2 on membrane permeability of MRSA USA 300 and K. pneumoniae ATCC 700603 as described elsewhere. SYTOX^TM Green is a DNA binding dye that is fluorescent when bound to nucleic acids and only enters cells with compromised plasma membranes. MRSA USA 300 and K. pneumoniae ATCC 700603 were cultured in LB broth to mid log phase at 37 °C and washed with PBS and resuspended (OD595 ≈ 0.1) in the same buffer. SYTOX^TM Green was added into the cell suspension with a final concentration of 5 μM and being kept in dark for 20 min. 98 µL pre-treated cell suspension was transferred into wells of 96-well glass black plates. Then, 2 µL of compound or DMSO were added to initiate the reaction. The final concentrations of HT2 and RI-HT2 were 1 ×, 2 ×, 4 × and 8 × MIC. Fluorescence strength was measured with excitation/emission wavelength of 485/528 nm every 5 min for 60 min.

[1] = tested on: K. pneumoniae ATCC 700603; experiment: Membrane depolarization assay, DiSC3(5); format: cell-based, Klebsiella pneumoniae
Experimental: MRSA USA 300 and K. pneumoniae ATCC 700603 were inoculated into 5 mL of LB and shaken at 37°C and 225 rpm to OD600 ≈ 0.5 (i.e., mid-logarithmic phase). Bacteria were collected by centrifugation at 8000 rpm for 5 min, and washed twice with assay buffer (5 mM HEPES, 20 mM glucose, 10 mM KCl, pH 7.2). Bacteria were resuspended in the assay buffer to OD595 ≈ 0.1. DiSC3(5) was added to the cells at final concentration of 0.3 µM, wrapped with aluminum foil, and incubated at 37°C, until a stable fluorescence was observed. Two microliter of compound or DMSO were transferred into 96-well black walled polystyrene plates, to which was added 98 µL per well of the dye-saturated bacterial cells to initiate the reaction. The final concentration of HT2 and RI-HT2 were 1 ×, 2 ×, 4 × and 8 × MIC. Plates were immediately read on an Envison at λex = 622 nm/ λem = 670 nm with a kinetic program (reading every 1 min for 10 min) until the maximal intensity achieved was observed.

Question: Which Fluorescence intensity (MRSA USA 300; 2 × MIC, time 40 min) does the source give for CC[C@@H](C)[C@@H](NC(=O)[C@@H](Cc1ccccc1)NC(=O)[C@@H](Cc1ccccc1)NC(=O)[C@@H](Cc1ccccc1)NC(=O)[C@H](N)Cc1ccccc1)C(=O)N[C@H](CCCNC(=N)N)C(=O)N[C@H](CCCNC(=N)N)C(=O)N[C@H](CC(C)C)C(=O)N[C@H](Cc1ccccc1)C(=O)N[C@H](CCCNC(=N)N)C(N)=O [RI-HT2] (H-[dF][dF][dF][dF][dI][dR][dR][dL][dF][dR]-NH2; N-terminus assumed) here?
Answer: Its Fluorescence intensity is 33952 and 34791 and 32993.

Question: And the Fluorescence intensity (MRSA USA 300; 2 × MIC, time 45 min)?
Answer: Its Fluorescence intensity is 34234 and 35153 and 33304.

Question: What about the Fluorescence intensity (MRSA USA 300; 2 × MIC, time 50 min) of the same molecule?
Answer: The Fluorescence intensity was 34616 and 35530 and 33726.

Question: And the Fluorescence intensity (MRSA USA 300; 2 × MIC, time 55 min)?
Answer: The Fluorescence intensity was 35021 and 36015 and 33983.

Question: What about the Fluorescence intensity (MRSA USA 300; 2 × MIC, time 60 min) of the same molecule?
Answer: Its Fluorescence intensity is 35210 and 36080 and 33852.

Question: And the Fluorescence intensity (MRSA USA 300; 4 × MIC, time 40 min)?
Answer: Its Fluorescence intensity is 61373 and 61097 and 62778.

Question: What about the Fluorescence intensity (MRSA USA 300; 4 × MIC, time 45 min) of the same molecule?
Answer: Its Fluorescence intensity is 61952 and 61758 and 63164.

Question: What about the Fluorescence intensity (MRSA USA 300; 4 × MIC, time 50 min) of the same molecule?
Answer: Its Fluorescence intensity is 62152 and 62388 and 63395.

Question: And the Fluorescence intensity (MRSA USA 300; 4 × MIC, time 55 min)?
Answer: The Fluorescence intensity was 62374 and 62948 and 63676.

Question: And the Fluorescence intensity (MRSA USA 300; 4 × MIC, time 60 min)?
Answer: Its Fluorescence intensity is 62761 and 62954 and 64070.

Question: And the Fluorescence intensity (MRSA USA 300; 8 × MIC, time 40 min)?
Answer: The Fluorescence intensity was 64561 and 64714.

Question: And the Fluorescence intensity (MRSA USA 300; 8 × MIC, time 45 min)?
Answer: Its Fluorescence intensity is 62984 and 64891 and 65072.

Question: What about the Fluorescence intensity (MRSA USA 300; 8 × MIC, time 50 min) of the same molecule?
Answer: The Fluorescence intensity was 63293 and 64293 and 63594.

Question: What about the Fluorescence intensity (MRSA USA 300; 8 × MIC, time 55 min) of the same molecule?
Answer: Its Fluorescence intensity is 63589 and 64553 and 65531.

Question: And the Fluorescence intensity (MRSA USA 300; 8 × MIC, time 60 min)?
Answer: Its Fluorescence intensity is 63666 and 65987 and 65753.

Question: And the Fluorescence intensity (MRSA USA 300; MIC, time 45 min)?
Answer: Its Fluorescence intensity is 17644 and 17567 and 16788.

Question: What about the Fluorescence intensity (MRSA USA 300; MIC, time 50 min) of the same molecule?
Answer: The Fluorescence intensity was 17792 and 17686 and 16728.

Question: And the Fluorescence intensity (MRSA USA 300; MIC, time 55 min)?
Answer: The Fluorescence intensity was 17738 and 17641 and 16766.

Question: What about the Fluorescence intensity (MRSA USA 300; MIC, time 60 min) of the same molecule?
Answer: The Fluorescence intensity was 17754 and 17734 and 16661.

Question: And the Fluorescence intensity ([1]; 2 × MIC, time 0 min)?
Answer: Its Fluorescence intensity is 524 and 562 and 567.

Question: What about the Fluorescence intensity ([1]; 2 × MIC, time 2 min) of the same molecule?
Answer: Its Fluorescence intensity is 516 and 539 and 556.

Question: What about the Fluorescence intensity ([1]; 2 × MIC, time 3 min) of the same molecule?
Answer: The Fluorescence intensity was 1018 and 1081 and 1049.

Question: What about the Fluorescence intensity ([1]; 2 × MIC, time 4 min) of the same molecule?
Answer: Its Fluorescence intensity is 977 and 1102 and 1036.

Question: And the Fluorescence intensity ([1]; 2 × MIC, time 5 min)?
Answer: The Fluorescence intensity was 928 and 1041 and 1003.

Question: And the Fluorescence intensity ([1]; 2 × MIC, time 6 min)?
Answer: The Fluorescence intensity was 984 and 1005 and 1049.

Question: And the Fluorescence intensity ([1]; 2 × MIC, time 7 min)?
Answer: The Fluorescence intensity was 1019 and 971 and 1090.

Question: And the Fluorescence intensity ([1]; 2 × MIC, time 8 min)?
Answer: The Fluorescence intensity was 991 and 1019 and 1055.

Question: What about the Fluorescence intensity ([1]; 2 × MIC, time 9 min) of the same molecule?
Answer: The Fluorescence intensity was 1058 and 978 and 1012.

Question: What about the Fluorescence intensity ([1]; 2 × MIC, time 10 min) of the same molecule?
Answer: The Fluorescence intensity was 1037 and 960 and 1078.

Question: And the Fluorescence intensity ([1]; 4 × MIC, time 0 min)?
Answer: Its Fluorescence intensity is 590 and 529 and 584.

Question: What about the Fluorescence intensity ([1]; 4 × MIC, time 2 min) of the same molecule?
Answer: Its Fluorescence intensity is 584 and 515 and 571.

Question: What about the Fluorescence intensity ([1]; 4 × MIC, time 3 min) of the same molecule?
Answer: The Fluorescence intensity was 1452 and 1364 and 1296.

Question: And the Fluorescence intensity ([1]; 4 × MIC, time 4 min)?
Answer: The Fluorescence intensity was 1513 and 1410 and 1284.

Question: And the Fluorescence intensity ([1]; 4 × MIC, time 5 min)?
Answer: Its Fluorescence intensity is 1502 and 1400 and 1268.

Question: And the Fluorescence intensity ([1]; 4 × MIC, time 6 min)?
Answer: The Fluorescence intensity was 1465 and 1366 and 1261.

Question: What about the Fluorescence intensity ([1]; 4 × MIC, time 7 min) of the same molecule?
Answer: The Fluorescence intensity was 1429 and 1325 and 1193.

Question: What about the Fluorescence intensity ([1]; 4 × MIC, time 8 min) of the same molecule?
Answer: The Fluorescence intensity was 1394 and 1320 and 1167.

Question: And the Fluorescence intensity ([1]; 4 × MIC, time 9 min)?
Answer: The Fluorescence intensity was 1416 and 1328 and 1128.

Question: What about the Fluorescence intensity ([1]; 4 × MIC, time 10 min) of the same molecule?
Answer: The Fluorescence intensity was 1397 and 1278 and 1109.

Question: What about the Fluorescence intensity ([1]; 8 × MIC, time 0 min) of the same molecule?
Answer: Its Fluorescence intensity is 592 and 582 and 568.

Question: And the Fluorescence intensity ([1]; 8 × MIC, time 2 min)?
Answer: Its Fluorescence intensity is 573 and 564 and 570.

Question: And the Fluorescence intensity ([1]; 8 × MIC, time 3 min)?
Answer: The Fluorescence intensity was 1540 and 1556 and 1621.

Question: And the Fluorescence intensity ([1]; 8 × MIC, time 4 min)?
Answer: The Fluorescence intensity was 1615 and 1608 and 1605.

Question: And the Fluorescence intensity ([1]; 8 × MIC, time 5 min)?
Answer: The Fluorescence intensity was 1614 and 1585 and 1626.

Question: What about the Fluorescence intensity ([1]; 8 × MIC, time 6 min) of the same molecule?
Answer: Its Fluorescence intensity is 1612 and 1568 and 1607.

Question: And the Fluorescence intensity ([1]; 8 × MIC, time 7 min)?
Answer: Its Fluorescence intensity is 1596 and 1549 and 1575.

Question: What about the Fluorescence intensity ([1]; 8 × MIC, time 8 min) of the same molecule?
Answer: Its Fluorescence intensity is 1587 and 1547 and 1574.

Question: What about the Fluorescence intensity ([1]; 8 × MIC, time 9 min) of the same molecule?
Answer: The Fluorescence intensity was 1570 and 1525 and 1571.

Question: What about the Fluorescence intensity ([1]; 8 × MIC, time 10 min) of the same molecule?
Answer: Its Fluorescence intensity is 1544 and 1527 and 1554.

Question: What about the Fluorescence intensity ([1]; MIC, time 0 min) of the same molecule?
Answer: Its Fluorescence intensity is 565 and 514 and 640.

Question: And the Fluorescence intensity ([1]; MIC, time 2 min)?
Answer: Its Fluorescence intensity is 559 and 523 and 621.

Question: And the Fluorescence intensity ([1]; MIC, time 3 min)?
Answer: Its Fluorescence intensity is 708 and 709 and 760.

Question: What about the Fluorescence intensity ([1]; MIC, time 4 min) of the same molecule?
Answer: The Fluorescence intensity was 641 and 602 and 694.

Question: What about the Fluorescence intensity ([1]; MIC, time 5 min) of the same molecule?
Answer: Its Fluorescence intensity is 610 and 588 and 672.

Question: And the Fluorescence intensity ([1]; MIC, time 6 min)?
Answer: Its Fluorescence intensity is 609 and 576 and 656.

Question: What about the Fluorescence intensity ([1]; MIC, time 7 min) of the same molecule?
Answer: Its Fluorescence intensity is 589 and 556 and 657.

Question: And the Fluorescence intensity ([1]; MIC, time 8 min)?
Answer: Its Fluorescence intensity is 594 and 552 and 635.

Question: What about the Fluorescence intensity ([1]; MIC, time 9 min) of the same molecule?
Answer: Its Fluorescence intensity is 581 and 540 and 637.

Question: And the Fluorescence intensity ([1]; MIC, time 10 min)?
Answer: Its Fluorescence intensity is 570 and 534 and 636.
